Reference: PMC11264951
Results are given in words; binding and its absence hold for the method and conditions named. Binding seen in cells or lysates may run through a third protein. Some binding calls cover weakened binding; strength is not graded here.

T1: methyltransferase-like protein 16 (METTL16) (mouse (endogenous in P10 testes)) (UniProt Q9CQG2)
T1 sequence: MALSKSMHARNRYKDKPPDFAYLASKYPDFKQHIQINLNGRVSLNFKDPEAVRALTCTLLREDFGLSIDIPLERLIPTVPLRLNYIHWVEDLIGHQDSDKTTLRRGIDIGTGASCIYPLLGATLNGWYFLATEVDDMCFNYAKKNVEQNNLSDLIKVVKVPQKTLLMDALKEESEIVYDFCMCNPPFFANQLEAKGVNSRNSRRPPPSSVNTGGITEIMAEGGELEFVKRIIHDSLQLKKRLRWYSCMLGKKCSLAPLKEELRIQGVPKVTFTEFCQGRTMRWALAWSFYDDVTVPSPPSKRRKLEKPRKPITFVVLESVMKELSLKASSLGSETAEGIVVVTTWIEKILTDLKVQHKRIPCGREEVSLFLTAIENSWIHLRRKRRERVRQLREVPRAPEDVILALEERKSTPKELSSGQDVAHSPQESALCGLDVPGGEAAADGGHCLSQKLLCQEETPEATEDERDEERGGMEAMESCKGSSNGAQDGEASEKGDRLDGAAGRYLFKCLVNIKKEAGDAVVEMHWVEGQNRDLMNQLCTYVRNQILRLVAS

B1: splicing factor 3b subunit 3 (SF3B3) (protein, UniProt Q921M3 1-1217)
chain: MFLYNLTLQRATGISFAIHGNFSGTKQQEIVVSRGKILELLRPDPNTGKVHTLLTVEVFGVIRSLMAFRLTGGTKDYIVVGSDSGRIVILEYQPSKNMFEKIHQETFGKSGCRRIVPGQFLAVDPKGRAVMISAIEKQKLVYILNRDAAARLTISSPLEAHKANTLVYHVVGVDVGFENPMFACLEMDYEEADNDPTGEAAANTQQTLTFYELDLGLNHVVRKYSEPLEEHGNFLITVPGGSDGPSGVLICSENYITYKNFGDQPDIRCPIPRRRNDLDDPERGMIFVCSATHKTKSMFFFLAQTEQGDIFKITLETDEDMVTEIRLKYFDTVPVAAAMCVLKTGFLFVASEFGNHYLYQIAHLGDDDEEPEFSSAMPLEEGDTFFFQPRPLKNLVLVDELDSLSPILFCQIADLANEDTPQLYVACGRGPRSSLRVLRHGLEVSEMAVSELPGNPNAVWTVRRHIEDEFDAYIIVSFVNATLVLSIGETVEEVTDSGFLGTTPTLSCSLLGDDALVQVYPDGIRHIRADKRVNEWKTPGKKTIVKCAVNQRQVVIALTGGELVYFEMDPSGQLNEYTERKEMSADVVCMSLANVPPGEQRSRFLAVGLVDNTVRIISLDPSDCLQPLSMQALPAQPESLCIVEMGGTEKQDELGERGSIGFLYLNIGLQNGVLLRTVLDPVTGDLSDTRTRYLGSRPVKLFRVRMQGQEAVLAMSSRSWLSYSYQSRFHLTPLSYETLEFASGFASEQCPEGIVAISTNTLRILALEKLGAVFNQVAFPLQYTPRKFVIHPESNNLIIIETDHNAYTEATKAQRKQQMAEEMVEAAGEDERELAAEMAAAFLNENLPESIFGAPKAGNGQWASVIRVMNPIQGNTLDLVQLEQNEAAFSVAVCRFSNTGEDWYVLVGVAKDLILSPRSVAGGFVYTYKLVNNGEKLEFLHKTPVEEVPAAIAPFQGRVLIGVGKLLRVYDLGKKKLLRKCENKHIANYISGIQTIGHRVIVSDVQESFIWVRYKRNENQLIIFADDTYPRWVTTASLLDYDTVAGADKFGNICVVRLPPNTNDEVDEDPTGNKALWDRGLLNGASQKAEVIMNYHVGETVLSLQKTTLIPGGSESLVYTTLSGGIGILVPFTSHEDHDFFQHVEMHLRSEHPPLCGRDHLSFRSYYFPVKNVIDGDLCEQFNSMEPNKQKNVSEELDRTPPEVSKKLEDIRTRYAF
B2: splicing factors 3b subunit 1 (SF3B1) (protein, UniProt Q99NB9 1-1304)
chain: MAKIAKTHEDIEAQIREIQGKKAALDEAQGVGLDSTGYYDQEIYGGSDSRFAGYVTSIAATELEDDDDDYSSSTSLLGQKKPGYHAPVALLNDIPQSTEQYDPFAEHRPPKIADREDEYKKHRRTMIISPERLDPFADGGKTPDPKMNARTYMDVMREQHLTKEEREIRQQLAEKAKAGELKVVNGAAASQPPSKRKRRWDQTADQTPGATPKKLSSWDQAETPGHTPSLRWDETPGRAKGSETPGATPGSKIWDPTPSHTPAGAATPGRGDTPGHATPGHGGATSSARKNRWDETPKTERDTPGHGSGWAETPRTDRGGDSIGETPTPGASKRKSRWDETPASQMGGSTPVLTPGKTPIGTPAMNMATPTPGHIMSMTPEQLQAWRWEREIDERNRPLSDEELDAMFPEGYKVLPPPAGYVPIRTPARKLTATPTPLGGMTGFHMQTEDRTMKSVNDQPSGNLPFLKPDDIQYFDKLLVDVDESTLSPEEQKERKIMKLLLKIKNGTPPMRKAALRQITDKAREFGAGPLFNQILPLLMSPTLEDQERHLLVKVIDRILYKLDDLVRPYVHKILVVIEPLLIDEDYYARVEGREIISNLAKAAGLATMISTMRPDIDNMDEYVRNTTARAFAVVASALGIPSLLPFLKAVCKSKKSWQARHTGIKIVQQIAILMGCAILPHLRSLVEIIEHGLVDEQQKVRTISALAIAALAEAATPYGIESFDSVLKPLWKGIRQHRGKGLAAFLKAIGYLIPLMDAEYANYYTREVMLILIREFQSPDEEMKKIVLKVVKQCCGTDGVEANYIKTEILPPFFKHFWQHRMALDRRNYRQLVDTTVELANKVGAAEIISRIVDDLKDEAEQYRKMVMETIEKIMGNLGAADIDHKLEEQLIDGILYAFQEQTTEDSVMLNGFGTVVNALGKRVKPYLPQICGTVLWRLNNKSAKVRQQAADLISRTAVVMKTCQEEKLMGHLGVVLYEYLGEEYPEVLGSILGALKAIVNVIGMHKMTPPIKDLLPRLTPILKNRHEKVQENCIDLVGRIADRGAEYVSAREWMRICFELLELLKAHKKAIRRATVNTFGYIAKAIGPHDVLATLLNNLKVQERQNRVCTTVAIAIVAETCSPFTVLPALMNEYRVPELNVQNGVLKSLSFLFEYIGEMGKDYIYAVTPLLEDALMDRDLVHRQTASAVVQHMSLGVYGFGCEDSLNHLLNYVWPNVFETSPHVIQAVMGALEGLRVAIGPCRMLQYCLQGLFHPARKVRDVYWKIYNSIYIGSQDALIAHYPRIYNDDKNTYIRYDLDYIL
B3: meiosis specific with coiled-coil domain (MEIOC) (protein, UniProt A2AG06 1-965)
chain: MEVSGGDTCRPRHPQGLREGPEPKVAAAAAAFRGSANRCWNLSVDTSNRLSDVFNSMMLTGSAPFYDCYKSQNEDNVDLRQTCTPLSSSTEYASSIDSSLFYAPWSTYGDDIKQPPSSQISVKNRIQTERNDYGSETDLYGLVSNILEEQDKSQPYFAEGTCSSNLKSVWPMNTSRFVDHHDLLTEPKRPVDTSISQQAFYSGESVSAVEKQYLHNSSLTPQQKIDELYHGYTGLDLEEQWLYLSRSDHSNCYNSQANDTVKATFQEYPFVKNCFTPQTGLSDIMKESGIDTYAYGREKICTKGLETPLQHKRAEIFLSQFNRYNENADYCRYPEYAHPNKAKLNKCSNFSVQDGKKLANGTPETPTVEADAYTKLFQVKPANQKKMEETIPDQQNFAFPKTTPHLTEKQFAKEAAFTADFGLKSEYGLKPHTACPTNNDFANVSEKQQFAKPDPLNSEYFKSVNLFSNSATSSGGISLNRPTWMNVQTKNNLPIPYRNQGNLMKLNSHLSAASKGSNHSSDFPQLSSTNLTSNSNLFQKYCQENPSAFSSFDFSYNGAERIQSVNHMEGLTKTGEDNLFESVTEKKIKQPNGFCDSYSASQYGIIENVNKHNFQAKPQSGHYDPEDIPKHFDGLPQNTYQDLLESQGHFNSHRQGSGDNNINSRVNRTQASCFSNNYMMGDLRHNQGFQQLGSNGFPLRSTHPFGHSVVPLLDSYDLFSYDDLSHLYPYFNDMMYGDNSFSGFVPTFGFQRPIKTRSGPASELHIRLEECYEQWRALEKERKKTELALAKNYPGKKVSSTNNTPIPRLTSNPSRVDRLIVDELREQARVVTLLGKMERLRSSPLHANISTALDRHLESIHIVQSRRKDEIVNASNRQRQGVPRCQDDRDVFALATAIKEMCVATRKARTTLWCALQMTLPKTASTAGQADMEKAFQDLVNCEEKVHESINSSNPMNQRGETSKH
B4: YTHDC2 (protein, UniProt B2RR83 1-1445)
chain: MSRPSSVSPRPPAPSGGGTGGGGGGSGGGGGGGGGGPASCGPGGGGRAKGLKDIRIDEEVKIAVNIALERFRYGDQREMEFPSSLTSTERAFIHRLSQSLGLVSKSKGKGANRYLTVKKKDGSETAHAMMTCNLTHNTKHAVRSLIQRFPVTNKERTELLPKTERGNVFAVEAENREMSKTSGRLNNGIPQVPVKRGESEFDSFRQSLPVFEKQEEIVKIIKENKVVLIVGETGSGKTTQIPQFLLDDCFKNGIPCRIFCTQPRRLAAIAVAERVAAERRERIGQTIGYQIRLESRVSPKTLLTFCTNGVLLRTLMAGDSTLSTVTHVIVDEVHERDRFSDFLLTKLRDLLQKHPTLKLILSSAALDVNLFIRYFGSCPVIYIQGRPFEVKEMFLEDILRTTGYTNKEMLKYKKEKQREEKQQTTLTEWYSAQENTFKPESQRQRAVASVSEEYDLLDDGGDAVFSQLTEKDVNCLEPWLIKEMDACLSDIWLHKDVDAFAQVFHLILTENVSVDYRHSETSATALMVAAGRGFTSQVEQLISMGANVHSKASNGWMALDWAKHFGQTEIVDLLESYSASLEFGNLDESSLVQTNGNDLSAEDRELLKAYHHSFDDEKVDLDLIMHLLYNICHSCDAGAILIFLPGYDEIVGLRDRILFDDKRFADNTHRYQVFMLHSNMQTSDQKKVLKNPPAGVRKIILSTNIAETSITVNDVVFVIDSGKVKEKSFDALNFVTMLKMVWISKASAIQRKGRAGRCRPGICFRLFSRLRFQNMLEFQTPELLRMPLQELCLHTKLLAPVNCTIADFLMKAPEPPPALIVRNAVQMLKTIDAMDAWEDLTELGYHLADLPVEPHLGKMVLCAVVLKCLDPILTIACTLAYRDPFVLPTQASQKRAAMLCRKRFTAGTFSDHMALLRAFQAWQKARSDGWERAFCEKNFLSQATMEIIIGMRTQLLGQLRASGFVRARGGGDIRDVNTNSENWAVVKAALVAGMYPNLVHVDRENVILTGPKEKKVRFHPTSVLSQPQYKKIPPANGQAAAIQALPTDWLIYDEMTRAHRIANIRCCSAVTPVTVLVFCGPARLASNALQEPSSFRADGIPNDSSDSEMEDRTTANLAALKLDEWLNFKLEPEAASLLLQLRQKWHSLFLRRMRAPSKPWSQVDEATIRAIIAVLSTEEQSAGLQQPSGIGQRPRPMSSEELPLASSWRSNNSRKSTADTEFADGSTTGERVLMKSPSPALHPPQKYKDRGILHPKRSTDDRSDQSSVKSTDSSSYPSPCASPSPPSSGKGSKSPSPRPNMPIRYFIMKSSNLRNLEISQQKGIWSTTPSNERKLNRAFWESSMVYLVFSVQGSGHFQGFSRMSSEIGREKSQDWGSAGLGGVFKVEWIRKESLPFQFAHHLLNPWNDNKKVQISRDGQELEPQVGEQLLQLWERLPLGEKTTSD
B5: RNA binding motif protein 46 (RBM46) (protein, UniProt P86049 1-533)
chain: MNEENTDGTNGCSKVRTGTQNEAALLALMEKTGYNMVQENGQRKFGGPPPGWEGPPPPRGCEVFVGKIPRDMYEDELVPVFERAGKIYEFRLMMEFSGENRGYAFVMYTTKEEAQLAIRILNNYEIRPGKFIGVCVSLDNCRLFIGAIPKEKKKEEILDEMKKVTEGVVDVIVYPSATDKTKNRGFAFVEYESHRAAAMARRKLIPGTFQLWGHTIQVDWADPEKEVDEETMQRVKVLYVRNLMISTTEETIKAEFSKFKPGAVERVKKLRDYAFVHFFHREDAVAAMSVMNGKCIDGASIEVTLAKPVNKENTWRQHLNGQISPNSENLLVYANKEESHSKSLGKPPTLPTRLNGQHSPSPPEIERCTYPFFPGTKLTPISMYSLKSNHFNSAVMHLDYYCNKNNWAPPEYYLYSTTSQDGKVLLVYKIVIPAIANGSQSYFMPDKLCTTLEDAKELAAQFTLLHLDFNFRRSSINSLSPVSTTLSSGTPSMLPYTSRPSSYPSYPLSPTISLANGSHVGQRLYISNQASFF

Molecular target: T1, methyltransferase-like protein 16 (METTL16) (mouse (endogenous in P10 testes))
Assay: co-IP; P10 mouse testis lysates in IP lysis buffer, IP with METTL16 antibody or IgG control (also METTL16 antibody plus RNase A), Protein A magnetic beads, 4 °C, western blot of the eluate

Binder | binding
B1 | binds
B2 | binds
B3 | binds
B4 | binds
B5 | binds
